Reference: article PMC2801614
A negative result means that nothing was seen under these conditions. The comparison behind a weaker result is the experiment's own reference, which may not be listed here. Construct, isoform or probe ends are uncertain for at least one entry.

Test system: alphaCTD (C-terminal domain of RNA polymerase alpha subunit) + Spx wild-type
Assay: EMSA
Conditions: EMSA: 20 mM Tris-HCl pH 7.8, 50 mM NaCl, 5 mM MgCl2, 10% glycerol, 5 uM each protein unless stated, room temperature (10 min preincubation, 15 min with probe), recombinant protein

TAATCGTGTTGAACAAAAAAATAACGTATCACCATG (double strand) [trxB (-56 to -21) G-44A G-33A]
binding result (supershift less abundant than with wild-type trxB): binds more weakly

TAATCGTGTTGAGCAAAAAAATAGCGTATCACCATG (double strand) [trxB promoter (-56 to -21)]
binding result (5 uM each, no DTT, supershifted ternary complex): binds
binding result (with DTT, ternary complex not formed): no binding
